PubChem BioAssay AID1224830, NIAID, 2016
Purpose: 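Host factors that control LPS-induced TNF expression in human macrophages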 (primary screen). Cell system: human THP-1 monocytic leukaemia cells, TNF dual-luciferase reporter clone, PMA-differentiated to macrophage-like cells. Knock-down reagent: siRNA pool against human genes, 50 nM. Duration: LPS for 4 h, given about 3 days after siRNA transfection. Challenge: bacterial LPS (TLR4 ligand), 10 ng/ml. Measured: 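Ratio of firefly to renilla light, scaled to the plate median and expressed as a robust z-score per replicate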. Reading the numbers: TNF reporter robust z-score: higher = stronger TNF reporter response to LPS. Rule for the call: 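Each well counts as active if its z-score is over 2.8 or under -1.5; controls are left without a call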.
Shown is a random part of about 18,000 deposited reagents. Over the whole deposit, about 2,900 (16%) got an active call. 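Calls are made per well; low scores hint the gene aids the LPS response, high scores that it dampens it.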 Repeated entries: four replicate wells of each siRNA pool.

Against SARNP, the entry reads TNF reporter robust z-score -0.94; inactive.
Depletion of SARNP gave: TNF reporter robust z-score -0.19; inactive.
After knock-down of SARNP the results were TNF reporter robust z-score -0.49; inactive.
Against SARNP, the values are TNF reporter robust z-score 0.3; inactive.
With knock-down of C1QTNF9B the results were TNF reporter robust z-score 0.22; inactive.
C1QTNF9B scored TNF reporter robust z-score 0.08; inactive.
C1QTNF9B gave TNF reporter robust z-score 0.27; inactive.
Depletion of C1QTNF9B gave: TNF reporter robust z-score 0.42; inactive.
With knock-down of FIBP, the record shows TNF reporter robust z-score 0.62; inactive.
FIBP scored TNF reporter robust z-score 0.69; inactive.
FIBP scored TNF reporter robust z-score 0.59; inactive.
After knock-down of FIBP, the screen gave TNF reporter robust z-score 1.11; inactive.
GTF2A1 scored TNF reporter robust z-score -0.56; inactive.
After knock-down of GTF2A1, the screen gave TNF reporter robust z-score -0.27; inactive.
Depletion of GTF2A1 gave: TNF reporter robust z-score -0.3; inactive.
GTF2A1 gave TNF reporter robust z-score -0.64; inactive.
Against TRIM55 the deposit lists TNF reporter robust z-score 0.08; inactive.
For TRIM55, the values are TNF reporter robust z-score -0.65; inactive.
With knock-down of TRIM55, the record shows TNF reporter robust z-score 0.41; inactive.
Against TRIM55, the entry reads TNF reporter robust z-score 1.5; inactive.

No new results follow: an excerpt of the list.
C1QTNF9B — TNF reporter robust z-score: 0.27; outcome: inactive
C1QTNF9B — TNF reporter robust z-score: 0.42; outcome: inactive
FIBP — TNF reporter robust z-score: 0.62; outcome: inactive
FIBP — TNF reporter robust z-score: 0.69; outcome: inactive
FIBP — TNF reporter robust z-score: 0.59; outcome: inactive
FIBP — TNF reporter robust z-score: 1.11; outcome: inactive

Next results:
MTARC1 scored TNF reporter robust z-score -0.62; inactive.
Knock-down of MTARC1 resulted in: TNF reporter robust z-score -0.01; inactive.
With knock-down of MTARC1, the screen gave TNF reporter robust z-score -0.47; inactive.
After knock-down of MTARC1, the record shows TNF reporter robust z-score 0.23; inactive.
CYP2C8 scored TNF reporter robust z-score -0.12; inactive.
CYP2C8 scored TNF reporter robust z-score -0.68; inactive.
For CYP2C8, the values are TNF reporter robust z-score -0.63; inactive.
Silencing of CYP2C8 gave: TNF reporter robust z-score 0.52; inactive.
After knock-down of RASA3 the results were TNF reporter robust z-score -1.28; inactive.
For RASA3 the deposit lists TNF reporter robust z-score -0.8; inactive.
With knock-down of RASA3, the screen gave TNF reporter robust z-score -0.85; inactive.
Silencing of RASA3 came out at: TNF reporter robust z-score -1.1; inactive.
With knock-down of SLC7A13 the results were TNF reporter robust z-score -0.25; inactive.
SLC7A13 scored TNF reporter robust z-score 0.01; inactive.
Against SLC7A13, the values are TNF reporter robust z-score -0.3; inactive.
Depletion of SLC7A13 came out at: TNF reporter robust z-score -0.4; inactive.
With knock-down of SPCS2, the screen gave TNF reporter robust z-score 0.05; inactive.
Depletion of SPCS2 came out at: TNF reporter robust z-score -1.57; active.
Knock-down of SPCS2 resulted in: TNF reporter robust z-score -1.03; inactive.
SPCS2 showed TNF reporter robust z-score 0.13; inactive.
With knock-down of VCPKMT, the record shows TNF reporter robust z-score 0.99; inactive.
Knock-down of VCPKMT gave: TNF reporter robust z-score 0.91; inactive.
VCPKMT gave TNF reporter robust z-score 1.42; inactive.
Depletion of VCPKMT came out at: TNF reporter robust z-score 1.26; inactive.
RTL8B scored TNF reporter robust z-score -0.83; inactive.
Depletion of RTL8B gave: TNF reporter robust z-score -0.55; inactive.
With knock-down of RTL8B the results were TNF reporter robust z-score -0.63; inactive.
RTL8B gave TNF reporter robust z-score -1.27; inactive.
